Source: PMC10265093
No constants are given. Whether binding was seen depends on the method and setting. For some of these results: Binding seen in cells or lysates may run through a third protein. Some results given as binding are weak or reduced against the parent protein; the word gives no strength. For some of these results: Sequences can lack the tags named with a protein. Blank lines part the entries; values can stand above or below the substance they belong to.

Sequences of proteins named here, by UniProt entry; tags and fusion partners are left off.
UniProt Q9NQL2: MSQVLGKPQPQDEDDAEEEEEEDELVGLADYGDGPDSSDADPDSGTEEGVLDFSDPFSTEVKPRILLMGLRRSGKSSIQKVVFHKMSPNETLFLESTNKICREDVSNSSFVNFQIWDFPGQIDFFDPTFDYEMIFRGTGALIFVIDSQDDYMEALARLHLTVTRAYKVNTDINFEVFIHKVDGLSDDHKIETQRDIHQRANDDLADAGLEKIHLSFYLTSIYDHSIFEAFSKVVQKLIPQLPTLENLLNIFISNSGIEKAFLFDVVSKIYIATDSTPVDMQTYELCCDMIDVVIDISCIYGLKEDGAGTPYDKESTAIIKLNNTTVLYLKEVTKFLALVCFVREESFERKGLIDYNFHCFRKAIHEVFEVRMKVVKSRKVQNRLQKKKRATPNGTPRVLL
UniProt P31749: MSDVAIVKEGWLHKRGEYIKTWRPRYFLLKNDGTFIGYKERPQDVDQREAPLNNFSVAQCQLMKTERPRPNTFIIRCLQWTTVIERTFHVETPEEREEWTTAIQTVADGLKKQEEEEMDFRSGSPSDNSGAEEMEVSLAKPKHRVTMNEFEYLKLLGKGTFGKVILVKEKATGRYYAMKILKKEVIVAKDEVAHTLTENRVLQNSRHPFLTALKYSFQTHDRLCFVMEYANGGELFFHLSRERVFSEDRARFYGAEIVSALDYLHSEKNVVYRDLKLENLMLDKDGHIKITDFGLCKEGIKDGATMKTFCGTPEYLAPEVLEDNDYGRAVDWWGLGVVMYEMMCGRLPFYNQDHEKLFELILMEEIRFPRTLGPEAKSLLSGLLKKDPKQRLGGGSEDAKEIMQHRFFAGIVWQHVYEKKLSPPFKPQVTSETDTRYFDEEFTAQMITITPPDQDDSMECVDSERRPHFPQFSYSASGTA
UniProt P31751: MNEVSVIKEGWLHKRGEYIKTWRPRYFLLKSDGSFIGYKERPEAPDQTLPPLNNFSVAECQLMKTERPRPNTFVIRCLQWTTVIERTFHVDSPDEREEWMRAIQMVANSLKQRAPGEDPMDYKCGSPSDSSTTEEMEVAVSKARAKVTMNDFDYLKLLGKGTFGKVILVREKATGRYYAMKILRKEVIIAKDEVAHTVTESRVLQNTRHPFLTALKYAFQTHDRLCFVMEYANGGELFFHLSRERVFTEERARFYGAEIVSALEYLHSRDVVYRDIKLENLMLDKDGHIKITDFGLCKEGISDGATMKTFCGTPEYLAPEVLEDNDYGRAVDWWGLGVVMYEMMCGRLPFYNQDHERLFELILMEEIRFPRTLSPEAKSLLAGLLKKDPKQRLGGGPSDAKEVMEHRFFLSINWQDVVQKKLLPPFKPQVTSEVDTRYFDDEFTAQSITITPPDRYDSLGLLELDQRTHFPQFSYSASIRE
UniProt Q8N122: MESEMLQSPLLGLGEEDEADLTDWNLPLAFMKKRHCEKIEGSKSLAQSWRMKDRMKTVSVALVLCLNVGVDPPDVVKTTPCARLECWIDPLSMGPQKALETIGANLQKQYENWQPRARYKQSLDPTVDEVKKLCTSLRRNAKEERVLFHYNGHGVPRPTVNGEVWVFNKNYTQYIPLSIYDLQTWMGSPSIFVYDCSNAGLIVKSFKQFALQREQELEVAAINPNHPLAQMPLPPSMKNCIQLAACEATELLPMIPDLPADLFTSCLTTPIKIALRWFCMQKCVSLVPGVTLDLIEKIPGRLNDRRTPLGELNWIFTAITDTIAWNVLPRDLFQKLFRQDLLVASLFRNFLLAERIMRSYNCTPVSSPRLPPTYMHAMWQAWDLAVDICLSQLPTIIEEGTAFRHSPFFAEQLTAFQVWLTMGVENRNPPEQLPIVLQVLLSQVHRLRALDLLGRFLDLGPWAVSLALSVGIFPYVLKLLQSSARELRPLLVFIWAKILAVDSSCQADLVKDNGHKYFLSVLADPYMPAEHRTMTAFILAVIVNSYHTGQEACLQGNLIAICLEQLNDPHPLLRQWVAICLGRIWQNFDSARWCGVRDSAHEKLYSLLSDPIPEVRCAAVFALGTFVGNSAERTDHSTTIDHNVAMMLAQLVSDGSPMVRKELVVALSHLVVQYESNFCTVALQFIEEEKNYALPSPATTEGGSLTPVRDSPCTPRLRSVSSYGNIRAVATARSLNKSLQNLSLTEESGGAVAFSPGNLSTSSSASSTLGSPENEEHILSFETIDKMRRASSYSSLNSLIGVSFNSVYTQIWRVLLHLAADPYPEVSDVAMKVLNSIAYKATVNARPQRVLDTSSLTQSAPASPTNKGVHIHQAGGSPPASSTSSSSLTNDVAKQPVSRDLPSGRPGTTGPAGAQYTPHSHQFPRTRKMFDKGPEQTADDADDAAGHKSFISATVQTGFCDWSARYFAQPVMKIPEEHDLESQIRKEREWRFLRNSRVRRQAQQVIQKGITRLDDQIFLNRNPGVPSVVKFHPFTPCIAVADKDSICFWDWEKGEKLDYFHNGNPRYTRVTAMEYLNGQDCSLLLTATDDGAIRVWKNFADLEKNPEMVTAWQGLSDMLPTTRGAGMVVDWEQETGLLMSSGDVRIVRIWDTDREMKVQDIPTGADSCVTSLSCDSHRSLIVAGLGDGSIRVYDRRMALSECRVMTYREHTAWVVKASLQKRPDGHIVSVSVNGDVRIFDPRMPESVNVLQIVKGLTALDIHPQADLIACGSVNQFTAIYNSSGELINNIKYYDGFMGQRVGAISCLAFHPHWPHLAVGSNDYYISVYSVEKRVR
UniProt Q5VZM2: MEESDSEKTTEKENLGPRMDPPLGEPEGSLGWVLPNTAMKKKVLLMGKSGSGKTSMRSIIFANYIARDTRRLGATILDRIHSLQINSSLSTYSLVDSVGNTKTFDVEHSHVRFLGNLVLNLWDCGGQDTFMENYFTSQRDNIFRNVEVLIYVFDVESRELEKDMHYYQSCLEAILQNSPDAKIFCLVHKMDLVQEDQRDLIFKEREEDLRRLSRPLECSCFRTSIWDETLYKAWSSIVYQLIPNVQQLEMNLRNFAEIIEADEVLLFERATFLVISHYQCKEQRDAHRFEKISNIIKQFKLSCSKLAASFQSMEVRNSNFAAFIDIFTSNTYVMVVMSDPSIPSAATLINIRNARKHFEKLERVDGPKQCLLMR
UniProt Q9Y243: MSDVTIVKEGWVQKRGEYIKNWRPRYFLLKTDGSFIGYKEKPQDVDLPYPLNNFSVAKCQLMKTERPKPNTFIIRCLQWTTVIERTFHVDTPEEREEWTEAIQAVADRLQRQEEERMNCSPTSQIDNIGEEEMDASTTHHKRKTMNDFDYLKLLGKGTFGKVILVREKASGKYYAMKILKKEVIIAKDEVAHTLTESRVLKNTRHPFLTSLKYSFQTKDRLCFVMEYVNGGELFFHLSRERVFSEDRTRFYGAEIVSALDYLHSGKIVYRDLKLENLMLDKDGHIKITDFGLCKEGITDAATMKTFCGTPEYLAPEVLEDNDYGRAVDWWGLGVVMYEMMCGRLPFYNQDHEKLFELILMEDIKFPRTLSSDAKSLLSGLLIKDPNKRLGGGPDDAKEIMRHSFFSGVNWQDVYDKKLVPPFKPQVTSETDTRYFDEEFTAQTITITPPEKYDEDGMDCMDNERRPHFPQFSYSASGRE

Assays:
Flag-RagD [1] = molecular target: Flag-RagD (UniProt Q9NQL2); assay: co-IP; supplementary figures (S1D,E; S2C-J; S3A-C) whose legends were not shown; constructs and cells not stated
[2] = molecular target: endogenous AKT1 (human (endogenous in HEK293T and HCT116)) (UniProt P31749); assay: co-IP; endogenous proteins; endogenous AKT or RagC immunoprecipitated with anti-AKT or anti-RagC polyclonal antibody; HEK293T (Figure 2H) or HCT116 (Figures 3F, 4D); cells starved of amino acids and serum 24 h, then insulin 30 min
Flag-FLCN [3] = molecular target: T1, Flag-FLCN (UniProt Q8NFG4); assay: pull-down; in vitro; immunoprecipitates (HA and Flag antibodies) prepared from lysates of HEK-293T cells; bound protein detected by Western blot; both purified
T1 sequence: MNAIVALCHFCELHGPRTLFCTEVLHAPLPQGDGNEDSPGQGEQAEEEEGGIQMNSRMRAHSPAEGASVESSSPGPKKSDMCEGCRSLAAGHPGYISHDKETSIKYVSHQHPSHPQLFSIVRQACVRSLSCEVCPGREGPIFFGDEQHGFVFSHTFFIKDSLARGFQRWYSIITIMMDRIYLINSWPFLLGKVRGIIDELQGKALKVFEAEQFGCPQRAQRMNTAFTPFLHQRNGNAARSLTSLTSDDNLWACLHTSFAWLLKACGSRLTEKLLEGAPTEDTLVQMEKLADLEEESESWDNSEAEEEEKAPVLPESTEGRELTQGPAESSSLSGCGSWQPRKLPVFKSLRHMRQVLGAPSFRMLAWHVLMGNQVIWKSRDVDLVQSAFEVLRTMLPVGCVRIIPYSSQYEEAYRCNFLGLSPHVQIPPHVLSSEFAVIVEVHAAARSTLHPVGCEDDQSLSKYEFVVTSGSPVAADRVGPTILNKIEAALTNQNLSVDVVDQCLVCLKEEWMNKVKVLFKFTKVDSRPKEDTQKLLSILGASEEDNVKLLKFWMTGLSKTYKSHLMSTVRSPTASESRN

Flag-FLCN [4] = molecular target: T1, Flag-FLCN; assay: co-IP; supplementary figures (S1D,E; S2C-J; S3A-C) whose legends were not shown; constructs and cells not stated
Flag-RagD [5] = molecular target: Flag-RagD (UniProt Q9NQL2); assay: co-IP; both partners tagged and overexpressed in transfected HEK293T cells; CHAPS lysis buffer (40 mM HEPES pH 7.4, 120 mM NaCl, 1 mM EDTA, 0.3% CHAPS); HA-conjugated beads or M2 beads 2-3 h; immunoblot; in some panels cells starved of amino acids and serum 24 h, then insulin
Flag-FLCN [6] = molecular target: T1, Flag-FLCN; assay: as above
Flag-RagD [7] = molecular target: Flag-RagD (UniProt Q9NQL2); assay: co-IP; Flag-tagged Rag overexpressed in HEK293T, endogenous Raptor detected; cells starved of amino acids and serum 24 h, then insulin 0-30 min, alone or with MK2206 or Torin1

Substance: AKT2 (from UniProt P31751 1-481) (enzyme)
- binding (Flag-RagD [1]): binds weakly

Substance: HA-AKT1 (from UniProt P31749 1-480) (enzyme)
- binding (Flag-FLCN [3]): binds
- binding (Flag-RagD [1]): binds
- binding (Flag-FLCN [4]): binds
- binding (Flag-RagD [5]): binds
- binding (Flag-FLCN [6]): binds

Substance: endogenous regulatory-associated of mTOR (Raptor) (from UniProt Q8N122 1-1335)
- binding (Flag-RagD [7]): binds

The remaining lines, values ahead:

- binding (Flag-RagD [1]): binds
Substance: RagB (from UniProt Q5VZM2 1-374)

- binding [2]: binds
Substance: endogenous RagD (from UniProt Q9NQL2 1-400)

- binding (Flag-RagD [1]): binds weakly
Substance: AKT3 (from UniProt Q9Y243 1-479) (enzyme)
